Experimental data from PubChem BioAssay AID504467 (National Center for Advancing Translational Sciences (NCATS), 2011).
Among all 330,000 compounds or so, about 7,700 (2.3%) were called active. Inconclusive results, whose numbers are uncertain, are shown with a selection of clear calls. Calls follow the shape of the dose curve; as a rule, active = well fitted inhibition curve with a large enough effect; inconclusive = small, poorly fitted or top-dose-only effect, or effect the other way; inactive = flat fitted curve, though single readings scatter. A potency beside an inconclusive call is a rough fit, not a confirmed value.

Test: qHTS screen for small molecules that inhibit ELG1-dependent DNA repair in human embryonic kidney (HEK293T) cells expressing luciferase-tagged ELG1; also: nearly all actives have a fitted effect of over 55% in size
Conditions: HEK293T ELG1-luciferase reporter, luminescence, 16 h, DNA damage induced by 5-fluorouridine; activity change, negative = inhibition: at 46.1 µM (top of the series)
Procedure, shortened: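 HEK293T cells expressing luciferase-tagged ELG1 (2,000/well) received 5-Fluorouridine plus compound or DMSO for 16 hr at 37 °C. Luciferase was read by ONE-Glo luminescence after 30 min at room temperature.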
% is scaled to controls: 0 for no effect and ±100 for the full control effect; potency is read from the fitted curve at half-maximal effect.

Question: With CCCCC(=O)N/N=C/c1c(O)n(C2CC2)c(=S)[nH]c1=O as the compound, how does the Potency read?
Answer: inactive

Question: For O=C1NC(=O)N(CCc2ccc(F)cc2)C(=O)/C1=C/c1ccco1, which Potency is on record?
Answer: inconclusive: 32.6 µM [activator, single point]

Question: With c1ccc(-c2nnc(SCc3nc4ccccc4[nH]3)o2)cc1 as the compound, how does the Potency read?
Answer: inconclusive: 14.6 µM [inhibitor, partial curve]

Question: Which Potency does the source give for O=c1c2ccccc2nc(SCC2CCCCO2)n1-c1ccccc1 (stereo unspecified) here?
Answer: inconclusive: 25.9 µM [inhibitor, single point]

Question: With O=C(Oc1ccc2c(c1)CCC2)N1CCOCC1 as the compound, how does the Potency read?
Answer: inconclusive: 16.4 µM [activator, partial curve]

Question: With O=C(NCc1ccccc1)Oc1cccc(Cl)c1 as the compound, how does the Potency read?
Answer: inconclusive: 14.6 µM [activator, single point]

Question: Which Potency does the source give for CCN(CC)c1ccc(/C=C2/C(=O)NC(=O)N(CC3CCCO3)C2=O)cc1 (stereo unspecified) here?
Answer: inactive

Question: For N#CCCn1cc(C=C2C(=O)NC(=O)NC2=O)c(-c2ccccc2)n1, which Potency is on record?
Answer: inactive

Question: Which Potency does the source give for Cn1c(=O)c2c(nc(SCc3ccccc3)n2Cc2ccc(Cl)cc2)n(C)c1=O here?
Answer: inconclusive: 23.1 µM [inhibitor, single point]

Question: With C=C1C(=O)O[C@H]2[C@H]1[C@H](OC(=O)CC(=O)O[C@@H]1C[C@@H](C)[C@@H]3C=CC(=O)[C@@]3(C)[C@H]3OC(=O)C(=C)[C@H]13)C[C@@H](C)[C@H]1C=CC(=O)[C@]12C as the compound, how does the activity change, negative = inhibition read?
Answer: inconclusive: 13% [activator]

Question: With CCn1c(O)c(/C=N/NC(=O)c2ccccc2)c(=O)n(CC)c1=S as the compound, how does the Potency read?
Answer: inconclusive: 16.4 µM [activator, partial curve]

Question: Which Potency does the source give for C=CCn1c(O)c(/C(C)=N/NC(=S)Nc2ccccc2)c(=O)[nH]c1=O here?
Answer: inconclusive: 29.1 µM [activator, single point]

Question: With COc1ccccc1CN1CCN(Cc2ccc(Cl)cc2)CC1 as the compound, how does the Potency read?
Answer: inactive

Question: Which Potency does the source give for C=C1N2CCC(CC2)C1(O)c1ccc(C)cc1 (stereo unspecified) here?
Answer: inconclusive: 29.1 µM [activator, single point]

Question: With O=c1c2ccc(Cl)cc2[nH]c(=S)n1-c1cccnc1 as the compound, how does the Potency read?
Answer: inactive

Question: With Cc1nn(C)c(C)c1P(=S)(c1c(C)nn(C)c1C)N(C)C as the compound, how does the Potency read?
Answer: inactive

Question: For O=S(=O)(c1ccc(F)c(F)c1F)N1CCN(c2ncnc3sccc23)CC1, which Potency is on record?
Answer: inconclusive: 2.59 µM [inhibitor, full curve]

Question: Which Potency does the source give for COC1=CC(=O)OC(/C=C/c2ccccc2)C1 (stereo unspecified) here?
Answer: inconclusive: 23.1 µM [activator, single point]

Question: With O=C(c1ccc(Cl)cc1)C1CCCN(Cc2ccc3c(c2)OCCO3)C1 (stereo unspecified) as the compound, how does the Potency read?
Answer: inactive

Question: Which Potency does the source give for N#CC1=C(N)Oc2c(c(=O)oc3ccccc23)C1c1cccnc1 (stereo unspecified) here?
Answer: inactive

Question: With Cc1ccc(-c2nc(N(C)C3CCN(C)CC3)c3ccccc3n2)cc1 as the compound, how does the Potency read?
Answer: inactive

Question: With Oc1ccc2c3c1OC1c4oc5ccccc5c4C[C@@]4(O)[C@@H](C2)N(CC2CC2)CC[C@]314 (stereo partly specified) as the compound, how does the Potency read?
Answer: inactive

Question: For N#CCCn1cc(C(=O)Nc2ccc(F)cc2)c(-c2ccc([N+](=O)[O-])cc2)n1, which Potency is on record?
Answer: inconclusive: 29.1 µM [activator, single point]

Question: Which Potency does the source give for COC(=O)C1=C(c2ccccc2OCc2ccccc2)C[C@@H]2CC[C@H]1N2C(=O)NC1CCN(Cc2ccccc2)CC1 here?
Answer: inconclusive: 16.4 µM [inhibitor, single point]

Question: Which Potency does the source give for CN1C2CCC1CC(OC(=O)c1ccc(Cl)cc1)C2 (stereo unspecified) here?
Answer: inactive

Question: With S=c1[nH]nc(-c2ccn[nH]2)n1-c1ccccc1Cl as the compound, how does the Potency read?
Answer: inconclusive: 23.1 µM [activator, partial curve, poor fit]

Question: For Cc1c(OCC(F)(F)F)ccnc1CS(=O)c1nc2ccccc2[nH]1 (stereo unspecified), which Potency is on record?
Answer: inconclusive: 20.6 µM [activator, partial curve]

Question: With O=C(Cn1cc(C(=O)c2ccccc2)c2ccccc21)NCc1ccco1 as the compound, how does the Potency read?
Answer: inconclusive: 20.6 µM [inhibitor, partial curve, poor fit]

Question: With COc1ccccc1OCCNC(=O)c1cc(=O)[nH]c2ccccc12 as the compound, how does the Potency read?
Answer: inconclusive: 5.17 µM [activator, partial curve, poor fit]

Question: With CN(Cc1ccc(OC(F)F)cc1)Cc1nc2c(Br)cc(Br)cc2c(=O)[nH]1 as the compound, how does the Potency read?
Answer: inconclusive: 23.1 µM [inhibitor, partial curve]

Question: With CCOC(=O)c1sc(/N=C/c2c(O)n(-c3cccc(C)c3)c(=O)[nH]c2=O)c(C#N)c1C as the compound, how does the Potency read?
Answer: inconclusive: 20.6 µM [activator, single point]

Question: For CCCOP(=O)(OCCC)C(NC(=O)c1cc(OC)c(OC)c(OC)c1)c1ccccc1 (stereo unspecified), which Potency is on record?
Answer: inconclusive: 18.3 µM [inhibitor, single point]

Question: Which Potency does the source give for Cc1ccc(C(=O)N[C@@H](C)CN2C3=NC[C@@H](Cc4ccccc4)N3C[C@H]2Cc2ccc(O)cc2)cc1Br here?
Answer: inactive

Question: Which Potency does the source give for COC(=O)C[C@]1(C(=O)OC)CN(C#N)N(c2ccc(Cl)cc2)C12c1ccccc1-c1ccccc12 here?
Answer: active: 25.9 µM

Question: With S=C(c1ccc(Cl)cc1)N1CCOCC1 as the compound, how does the Potency read?
Answer: inactive

Question: Which Potency does the source give for Cc1nn(-c2ccccc2)c2c1C(c1ccc3c(c1)OCO3)SCC(=O)N2 (stereo unspecified) here?
Answer: inconclusive: 18.4 µM [inhibitor, single point]

Question: Which Potency does the source give for O=C(N/N=C\C1C(=O)NC(=S)N(c2ccccc2)C1=O)c1ccc(O)cc1 (stereo unspecified) here?
Answer: inactive

Question: Which Potency does the source give for CSc1ccc(C(=O)C2CCCN(Cc3cccnc3)C2)cc1 (stereo unspecified) here?
Answer: inconclusive: 29.1 µM [inhibitor, single point]

Question: With Clc1ccc(OCC#CCN2CCCCCC2)cc1 as the compound, how does the Potency read?
Answer: inactive

Question: For CC(=O)Nc1ccccc1C(=O)OCC(=O)Nc1ncccn1, which Potency is on record?
Answer: inconclusive: 18.3 µM [activator, partial curve, poor fit]

Question: For Cc1cc(C=C2C(=O)N(C)C(=S)N(C)C2=O)c(C)n1C1CCCCC1, which Potency is on record?
Answer: inactive

Question: With COc1ccc(C(=O)Nc2cc(Cl)ccc2C(=O)O)cc1 as the compound, how does the Potency read?
Answer: inconclusive: 18.3 µM [activator, single point]

Question: With O=C(Nc1cccc2ccccc12)N1CCC2(CC1)OCCO2 as the compound, how does the Potency read?
Answer: inconclusive: 32.6 µM [activator, single point]

Question: Which Potency does the source give for CCOCN(C(=O)CCl)c1c(C)cccc1CC here?
Answer: inconclusive: 20.6 µM [inhibitor, single point]

Question: Which Potency does the source give for COc1cc(CN2CCCC(C(=O)c3sccc3C)C2)cc(OC)c1O (stereo unspecified) here?
Answer: inactive

Question: With O=C(Cc1ccccc1)N1CCN(Cc2cccc(Cl)c2)CC1 as the compound, how does the Potency read?
Answer: inactive

Question: With CCOc1ccc(-n2c(O)c(C=Nc3ccc(NC(C)=O)cc3)c(=O)[nH]c2=O)cc1 as the compound, how does the Potency read?
Answer: inconclusive: 32.6 µM [activator, single point]

Question: With COc1ccc(Cc2c(O)[nH]c(=S)[nH]c2=O)cc1 as the compound, how does the Potency read?
Answer: inactive

Question: With C/C(=N\Nc1ccccc1)c1c(O)n(-c2ccccc2)c(=O)[nH]c1=O as the compound, how does the Potency read?
Answer: inconclusive: 8.2 µM [inhibitor, partial curve, poor fit]

Question: With CC(=Nc1ccccc1N)c1c(O)n(C)c(=O)n(C)c1=O as the compound, how does the Potency read?
Answer: inconclusive: 18.3 µM [activator, single point]

Question: Which Potency does the source give for C/C(=C\C(=O)c1ccc(Br)cc1)NCc1ccccc1 here?
Answer: inconclusive: 20.6 µM [activator, single point]

Question: Which Potency does the source give for COP(=O)(OC)c1nc(-c2cccc3ccccc23)oc1N1CCCCC1 here?
Answer: inconclusive: 16.4 µM [inhibitor, single point]

Question: For Oc1ccc(Cl)c(Cl)c1, which Potency is on record?
Answer: inactive

Question: For COc1cccc(-c2nc(CS(=O)CC(=O)N3CCC4(CC3)OCCO4)c(C)o2)c1 (stereo unspecified), which Potency is on record?
Answer: inactive

Question: For CC(C)CNC(=O)/C=C/C=C/CCCCCC/C=C/c1ccc2c(c1)OCO2, which Potency is on record?
Answer: inactive

Question: Which Potency does the source give for CN1CCC(O)(c2ccccc2)C(C(=O)c2ccccc2)C1 (stereo unspecified) here?
Answer: inactive

Question: Which Potency does the source give for O=C(N/N=C/c1c(O)n(CCc2ccccc2)c(=O)[nH]c1=O)c1ccccc1 here?
Answer: inactive

Question: For Cc1ccccc1-[n+]1c(-c2ccccc2)cc(-c2ccccc2)cc1-c1ccccc1, which Potency is on record?
Answer: inconclusive: 28.2 µM [inhibitor, single point]

Question: For CC1CC(NC(=O)C2C3CCC(O3)C2C(=O)O)CC(C)(C)C1 (stereo unspecified), which Potency is on record?
Answer: inconclusive: 18.4 µM [activator, single point]

Question: For COc1cc(C)c(CNCCc2c[nH]c3ccccc23)cc1C, which Potency is on record?
Answer: inconclusive: 16.4 µM [inhibitor, partial curve, poor fit]

Question: Which Potency does the source give for COc1ccc(C(O)P(=O)(Oc2ccccc2)Oc2ccccc2)cc1 (stereo unspecified) here?
Answer: inconclusive: 32.6 µM [inhibitor, partial curve, poor fit]

Question: For CCC(=NCCc1c[nH]c2ccccc12)c1c(O)n(C)c(=O)n(C)c1=O, which Potency is on record?
Answer: active: 16.4 µM

Question: With O=C(c1cccc(Cl)c1)C1CCCN(Cc2cccc3cnccc23)C1 (stereo unspecified) as the compound, how does the Potency read?
Answer: inconclusive: 23.1 µM [inhibitor, partial curve]

Question: For Fc1ccc(Cn2nnnc2CN2CCC(n3nnc4cc(C(F)(F)F)ccc43)CC2)cc1, which Potency is on record?
Answer: inconclusive: 23.1 µM [inhibitor, single point]

Question: For CCOC(=O)c1cc2c(cn1)[nH]c1ccccc12, which Potency is on record?
Answer: inconclusive: 11.6 µM [activator, partial curve]

Question: Which Potency does the source give for CCc1ccc(N2C(=O)NC(=O)/C(=C/c3cccn3CCOc3ccc(C)cc3)C2=O)cc1 here?
Answer: inconclusive: 23.1 µM [activator, single point]

Question: With C=C(C=O)CC1CC(O)[C@]2(C)OC3CC4OC5C[C@]6(C)O[C@]7(C)CCC8OC9C[C@]%10(C)OC%11C(C)=CC(=O)OC%11CC%10OC9C[C@@H](C)C8OC7CC6O[C@]5(C)CC5OC5C4OC3CC2O1 (stereo partly specified) as the compound, how does the Potency read?
Answer: active: 4.11 µM

Question: For O=c1[nH]c(=S)n(CCC2=CCCCC2)c(O)c1C=NCCCn1ccnc1, which Potency is on record?
Answer: inactive

Question: With CC(C(=O)c1ccc2ccccc2c1)N1CCCCC1 (stereo unspecified) as the compound, how does the Potency read?
Answer: inactive

Question: With Cc1[nH]c2ccc(OC(=O)N3CCOCC3)cc2c1C(=O)OC(C)C as the compound, how does the Potency read?
Answer: inconclusive: 16.4 µM [inhibitor, partial curve]

Question: For CC(C)(C)n1c(O)c(C=Nc2ccc3c(c2)CCC3)c(=O)[nH]c1=O, which Potency is on record?
Answer: inconclusive: 9.2 µM [inhibitor, partial curve, poor fit]
